# Some of the results follow.
# B1: GS13599A-bth-520-23-520 (Bacteroides thetaiotaomicron) (protein)
# chain: SEDTMDRINKDHDHTTSVASRFILADVITSTAFSNASGDINTYASSYIEYEVGVDNQLYYAEVRENEPSSSSTFNNSWNGIYSSLKNARIIIDQCGEGGRDHGNDVTRGMAEVMAAYNCALIADFFGDAPCSQAALVDEKGSPVYMTPKMDTQQEIYTQIISYLDDAIANLQKEDLADVTEQDFLYAGDADKWLKFAYGLKARYTMRLINRSSNKSADYEKVLDYVSKSFTSADDQAAFDIYDSNNINPFYGFYNSRAGFGASTSLGTKLLAYNDPRANRAFFTPIVDKKRSQVAANDPSLVPAPNGSPDQSTSKYGISAFVYAKTAPTLLMSYHELMFLKAEALCRLNRDAEDALKEAVVAGLLNAENSISIAIKELGSGLNTNSSEVITETSAGKYFDDVVKAKYAANPLQETMIQKYLAMWGASGEATETYNDFRRMKGLNENFITLTNPNNSSKFPLRYPYGNSDTAANPEVKAAYGNGDYVYSEPVWWAGGSR
# Legend:
# Experiment in all cases: glycan array binding signal (z-score within array); higher = stronger binding
# Settings in all cases: glycan notation: IUPAC condensed, linker removed
# [1] = molecular target: GlcNAc(b1-3)Gal(b1-4)GlcNAc(b1-3)Gal(b1-4)GlcNAc(b1-3)GalNAc
# In short: (§1)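 Columns mapping to the same glycan were averaged after glycan names were converted to IUPAC-condensed notation. The data come from 3228 arrays in the Consortium for Functional Glycomics database, limited to those with an available protein sequence. Binding is reported as a within-array Z-score averaged across arrays of one protein sequence and across linkers.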
# [2] = molecular target: GlcNAc(b1-3)Gal(b1-4)GlcNAc(b1-3)GalNAc
# In short: as §1
# [3] = molecular target: GlcNAc(b1-3)Gal(b1-4)GlcNAc(b1-3)[GlcNAc(b1-3)Gal(b1-4)GlcNAc(b1-3)]GalNAc
# In short: as §1
# [4] = molecular target: GlcNAc(b1-3)Gal(b1-4)GlcNAc(b1-6)[Gal(b1-3)]GalNAc
# In short: as §1
# [5] = molecular target: GlcNAc(b1-3)Gal(b1-4)GlcNAc(b1-6)[GlcNAc(b1-3)Gal(b1-3)]GalNAc
# In short: as §1
# [6] = molecular target: GlcNAc(b1-3)Gal(b1-4)GlcNAc(b1-6)[GlcNAc(b1-3)]Gal(b1-4)GlcNAc
# In short: as §1
# GlcNAc(b1-3)GalNAc = molecular target: GlcNAc(b1-3)GalNAc
# In short: as §1
# GlcNAc(b1-3)Man = molecular target: GlcNAc(b1-3)Man
# In short: as §1
# [7] = molecular target: GlcNAc(b1-3)[GlcNAc(b1-4)][GlcNAc(b1-6)]GlcNAc
# In short: as §1
# [8] = molecular target: GlcNAc(b1-3)[GlcNAc(b1-6)]Gal(b1-4)GlcNAc
# In short: as §1
# [9] = molecular target: GlcNAc(b1-3)[GlcNAc(b1-6)]GalNAc
# In short: as §1
# [10] = molecular target: GlcNAc(b1-4)Gal(b1-4)GlcNAc
# In short: as §1
# GlcNAc(b1-4)GlcNAc = molecular target: GlcNAc(b1-4)GlcNAc
# In short: as §1
# [11] = molecular target: GlcNAc(b1-4)GlcNAc(b1-4)GlcNAc
# In short: as §1
# [12] = molecular target: GlcNAc(b1-4)GlcNAc(b1-4)GlcNAc(b1-4)GlcNAc(b1-4)GlcNAc
# In short: as §1
# [13] = molecular target: GlcNAc(b1-4)GlcNAc(b1-4)GlcNAc(b1-4)GlcNAc(b1-4)GlcNAc(b1-4)GlcNAc
# In short: as §1
# [14] = molecular target: GlcNAc(b1-4)[GlcNAc(b1-6)]GalNAc
# In short: as §1
# [15] = molecular target: GlcNAc(b1-6)Gal(b1-4)GlcNAc
# In short: as §1
# GlcNAc(b1-6)GalNAc = molecular target: GlcNAc(b1-6)GalNAc
# In short: as §1
# [16] = molecular target: GlcNAc6S(b1-3)Gal(b1-4)GlcNAc
# In short: as §1
# Kdn(a2-3)Gal(b1-3)GalNAc = molecular target: Kdn(a2-3)Gal(b1-3)GalNAc
# In short: as §1
# Kdn(a2-3)Gal(b1-3)GlcNAc = molecular target: Kdn(a2-3)Gal(b1-3)GlcNAc
# In short: as §1
# Kdn(a2-3)Gal(b1-4)Glc = molecular target: Kdn(a2-3)Gal(b1-4)Glc
# In short: as §1
# Kdn(a2-3)Gal(b1-4)GlcNAc = molecular target: Kdn(a2-3)Gal(b1-4)GlcNAc
# In short: as §1
# [17] = molecular target: Kdn(a2-3)Gal(b1-4)[Fuc(a1-3)]GlcNAc
# In short: as §1
# Kdn(a2-6)Gal(b1-4)GlcNAc = molecular target: Kdn(a2-6)Gal(b1-4)GlcNAc
# In short: as §1
# [18] = molecular target: Man(a1-2)Man(a1-2)Man(a1-3)Man
# In short: as §1
# [19] = molecular target: Man(a1-2)Man(a1-2)Man(a1-6)[Man(a1-3)]Man
# In short: as §1
# Man(a1-2)Man(a1-3)Man = molecular target: Man(a1-2)Man(a1-3)Man
# In short: as §1
# [20] = molecular target: Man(a1-2)Man(a1-3)[Man(a1-2)Man(a1-6)]Man
# In short: as §1
# [21] = molecular target: Man(a1-2)Man(a1-3)[Man(a1-2)Man(a1-6)]Man(a1-6)[Man(a1-2)Man(a1-2)Man(a1-3)]Man
# In short: as §1
# [22] = molecular target: Man(a1-2)Man(a1-3)[Man(a1-2)Man(a1-6)]Man(a1-6)[Man(a1-2)Man(a1-2)Man(a1-3)]Man(b1-4)GlcNAc(b1-4)GlcNAc
# In short: as §1
# [23] = molecular target: Man(a1-2)Man(a1-3)[Man(a1-6)]Man(a1-6)[Man(a1-2)Man(a1-3)]Man(b1-4)GlcNAc(b1-4)GlcNAc
# In short: as §1
# [24] = molecular target: Man(a1-2)Man(a1-6)[Man(a1-3)]Man(a1-6)[Man(a1-2)Man(a1-2)Man(a1-3)]Man
# In short: as §1
# [25] = molecular target: Man(a1-2)Man(a1-6)[Man(a1-3)]Man(a1-6)[Man(a1-2)Man(a1-2)Man(a1-3)]Man(b1-4)GlcNAc(b1-4)GlcNAc
# In short: as §1
# Man(a1-3)[Man(a1-6)]Man = molecular target: Man(a1-3)[Man(a1-6)]Man
# In short: as §1
# [26] = molecular target: Man(a1-3)[Man(a1-6)]Man(a1-6)[Man(a1-2)Man(a1-3)]Man(b1-4)GlcNAc(b1-4)GlcNAc
# In short: as §1
# [27] = molecular target: Man(a1-3)[Man(a1-6)]Man(a1-6)[Man(a1-3)]Man
# In short: as §1
# [28] = molecular target: Man(a1-3)[Man(a1-6)]Man(a1-6)[Man(a1-3)]Man(b1-4)GlcNAc(b1-4)GlcNAc
# In short: as §1
# [29] = molecular target: Man(a1-3)[Man(a1-6)]Man(b1-4)GlcNAc(b1-4)GlcNAc
# In short: as §1
# [30] = molecular target: Man(a1-3)[Man(a1-6)]Man(b1-4)GlcNAc(b1-4)[Fuc(a1-6)]GlcNAc
# In short: as §1
# Man(a1-6)Man = molecular target: Man(a1-6)Man
# In short: as §1
# Man(b1-4)GlcNAc = molecular target: Man(b1-4)GlcNAc
# In short: as §1
# MurNAc(b1-4)GlcNAc = molecular target: MurNAc(b1-4)GlcNAc
# In short: as §1
# Neu5Ac(a2-3)Gal = molecular target: Neu5Ac(a2-3)Gal
# In short: as §1
binder,measurement,setting,value
B1,glycan array binding signal (z-score),[1],-0.242
same,glycan array binding signal (z-score),[2],-0.319
same,glycan array binding signal (z-score),[3],-0.324
same,glycan array binding signal (z-score),[4],-0.543
same,glycan array binding signal (z-score),[5],0.056
same,glycan array binding signal (z-score),[6],0.736
same,glycan array binding signal (z-score),GlcNAc(b1-3)GalNAc,-0.348
same,glycan array binding signal (z-score),GlcNAc(b1-3)Man,0.755
same,glycan array binding signal (z-score),[7],-1.11
same,glycan array binding signal (z-score),[8],0.291
same,glycan array binding signal (z-score),[9],-0.081
same,glycan array binding signal (z-score),[10],-0.441
same,glycan array binding signal (z-score),GlcNAc(b1-4)GlcNAc,0.134
same,glycan array binding signal (z-score),[11],-0.942
same,glycan array binding signal (z-score),[12],-1.21
same,glycan array binding signal (z-score),[13],-0.528
same,glycan array binding signal (z-score),[14],-0.35
same,glycan array binding signal (z-score),[15],0.345
same,glycan array binding signal (z-score),GlcNAc(b1-6)GalNAc,-0.798
same,glycan array binding signal (z-score),[16],-0.546
same,glycan array binding signal (z-score),Kdn(a2-3)Gal(b1-3)GalNAc,1.78
same,glycan array binding signal (z-score),Kdn(a2-3)Gal(b1-3)GlcNAc,1.02
same,glycan array binding signal (z-score),Kdn(a2-3)Gal(b1-4)Glc,-0.559
same,glycan array binding signal (z-score),Kdn(a2-3)Gal(b1-4)GlcNAc,0.096
same,glycan array binding signal (z-score),[17],0.574
same,glycan array binding signal (z-score),Kdn(a2-6)Gal(b1-4)GlcNAc,-0.019
same,glycan array binding signal (z-score),[18],0.245
same,glycan array binding signal (z-score),[19],-0.488
same,glycan array binding signal (z-score),Man(a1-2)Man(a1-3)Man,-0.492
same,glycan array binding signal (z-score),[20],-1.45
same,glycan array binding signal (z-score),[21],-0.528
same,glycan array binding signal (z-score),[22],-1.33
same,glycan array binding signal (z-score),[23],-1.2
same,glycan array binding signal (z-score),[24],-0.654
same,glycan array binding signal (z-score),[25],-0.748
same,glycan array binding signal (z-score),Man(a1-3)[Man(a1-6)]Man,0.71
same,glycan array binding signal (z-score),[26],1.29
same,glycan array binding signal (z-score),[27],-0.42
same,glycan array binding signal (z-score),[28],0.26
same,glycan array binding signal (z-score),[29],-0.716
same,glycan array binding signal (z-score),[30],0.777
same,glycan array binding signal (z-score),Man(a1-6)Man,1.52
same,glycan array binding signal (z-score),Man(b1-4)GlcNAc,-0.573
same,glycan array binding signal (z-score),MurNAc(b1-4)GlcNAc,0.296
same,glycan array binding signal (z-score),Neu5Ac(a2-3)Gal,-0.216

# Reprinted at random: 2 records from the list
binder,measurement,setting,value
B1,glycan array binding signal (z-score),[15],0.345
same,glycan array binding signal (z-score),[19],-0.488

# Reference: the supplement of paper PMC8728848
